From article PMC6996382
Results are given in words; binding and its absence hold for the method and conditions named. In cells and extracts the contact can be indirect. Some results given as binding are weak or reduced against the parent protein; the word gives no strength.

The chains behind the UniProt entries cited, without tags or fusion partners. Where a name states a change or a piece, a line headed by the entry shows the natural chain unless it says otherwise. Residues count along the entry.
UniProt P46940: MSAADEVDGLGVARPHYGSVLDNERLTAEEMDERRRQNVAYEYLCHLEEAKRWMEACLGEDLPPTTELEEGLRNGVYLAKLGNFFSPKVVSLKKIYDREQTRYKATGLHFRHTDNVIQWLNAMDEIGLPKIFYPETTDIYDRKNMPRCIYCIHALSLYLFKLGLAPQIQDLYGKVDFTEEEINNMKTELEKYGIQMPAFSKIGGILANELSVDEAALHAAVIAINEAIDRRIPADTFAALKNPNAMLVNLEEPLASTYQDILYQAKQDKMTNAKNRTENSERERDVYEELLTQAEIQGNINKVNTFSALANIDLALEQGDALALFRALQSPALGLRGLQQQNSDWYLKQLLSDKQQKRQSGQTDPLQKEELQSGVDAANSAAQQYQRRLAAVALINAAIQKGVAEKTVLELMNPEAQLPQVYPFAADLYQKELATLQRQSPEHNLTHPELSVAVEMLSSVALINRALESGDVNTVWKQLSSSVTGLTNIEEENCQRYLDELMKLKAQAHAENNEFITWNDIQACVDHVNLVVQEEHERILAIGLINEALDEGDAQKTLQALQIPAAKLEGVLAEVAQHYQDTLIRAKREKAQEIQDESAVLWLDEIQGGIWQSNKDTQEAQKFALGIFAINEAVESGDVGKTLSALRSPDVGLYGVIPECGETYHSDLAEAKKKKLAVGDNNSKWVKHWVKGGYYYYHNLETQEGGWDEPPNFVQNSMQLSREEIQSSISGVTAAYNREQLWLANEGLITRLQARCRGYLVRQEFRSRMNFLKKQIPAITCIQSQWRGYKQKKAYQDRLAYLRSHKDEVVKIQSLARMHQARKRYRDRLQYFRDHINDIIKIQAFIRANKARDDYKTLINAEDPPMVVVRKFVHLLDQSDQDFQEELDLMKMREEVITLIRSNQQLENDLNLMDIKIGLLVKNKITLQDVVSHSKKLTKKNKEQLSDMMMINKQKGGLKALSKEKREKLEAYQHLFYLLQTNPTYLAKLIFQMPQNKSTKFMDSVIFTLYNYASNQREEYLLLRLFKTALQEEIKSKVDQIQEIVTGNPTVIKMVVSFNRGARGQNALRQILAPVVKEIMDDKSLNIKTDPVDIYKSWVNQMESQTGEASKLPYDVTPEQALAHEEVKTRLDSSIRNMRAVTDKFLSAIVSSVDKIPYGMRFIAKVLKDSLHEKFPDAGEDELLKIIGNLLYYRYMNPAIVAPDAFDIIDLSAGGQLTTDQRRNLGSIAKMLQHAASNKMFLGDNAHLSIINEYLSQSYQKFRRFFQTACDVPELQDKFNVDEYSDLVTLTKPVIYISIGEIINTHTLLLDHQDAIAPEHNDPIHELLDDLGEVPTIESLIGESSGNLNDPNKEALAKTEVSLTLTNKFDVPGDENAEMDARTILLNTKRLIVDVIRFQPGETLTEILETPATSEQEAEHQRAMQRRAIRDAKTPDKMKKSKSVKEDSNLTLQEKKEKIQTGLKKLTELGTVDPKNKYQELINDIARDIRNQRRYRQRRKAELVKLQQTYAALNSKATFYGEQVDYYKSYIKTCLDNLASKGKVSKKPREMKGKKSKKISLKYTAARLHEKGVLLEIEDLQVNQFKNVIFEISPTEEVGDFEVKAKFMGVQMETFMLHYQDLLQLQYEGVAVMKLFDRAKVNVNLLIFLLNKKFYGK
GST‐IQGAP1‐N (aa 1‐863): residues 1-863 of P46940
GST‐IQGAP1‐C (aa 746‐1657): residues 746-1657 of P46940

Legend:
[1] = biological target: IQ motif‐containing GTPase‐activating protein 1 (IQGAP1) (human (endogenous in skin fibroblasts)) (UniProt P46940); experiment: co-IP; immunoprecipitation with an anti‐IQGAP1 mouse monoclonal antibody on Dynabeads G from skin fibroblast lysates (control subjects and patients with CSA), overnight at 4°C, washed with PBS with 0.02% Tween 20; Western blotting for p122RhoGAP/DLC‐1 and PLC‐δ1
[2] = biological target: GST‐IQGAP1‐C (aa 746‐1657) (human) (UniProt P46940); experiment: pull-down; GST fusion proteins immobilized on Glutathione Sepharose beads incubated for 3 hours at room temperature with supernatants of bacterial crude lysates; beads washed six times with lysis buffer; Western blotting with anti‐RH antibody; only the target purified
[3] = biological target: GST‐IQGAP1‐N (aa 1‐863) (human) (UniProt P46940); experiment: as above

Row | binding [1] | binding [2] | binding [3] | Binder
1 | binds | – | – | p122RhoGTPase‐activating protein (GAP)/deleted in liver cancer‐1 (p122RhoGAP/DLC‐1) (protein, UniProt Q96QB1-1 1-1091) MCRKKPDTMILTQIEAKEACDWLRATGFPQYAQLYEDFLFPIDISLVKREHDFLDRDAIEALCRRLNTLNKCAVMKLEISPHRKRSDDSDEDEPCAISGKWTFQRDSKRWSRLEEFDVFSPKQDLVPGSPDDSHPKDGPSPGGTLMDLSERQEVSSVRSLSSTGSLPSHAPPSEDAATPRTNSVISVCSSSNLAGNDDSFGSLPSPKELSSFSFSMKGHEKTAKSKTRSLLKRMESLKLKSSHHSKHKAPSKLGLIISGPILQEGMDEEKLKQLNCVEISALNGNRINVPMVRKRSVSNSTQTSSSSSQSETSSAVSTPSPVTRTRSLSACNKRVGMYLEGFDPFNQSTFNNVVEQNFKNRESYPEDTVFYIPEDHKPGTFPKALTNGSFSPSGNNGSVNWRTGSFHGPGHISLRRENSSDSPKELKRRNSSSSMSSRLSIYDNVPGSILYSSSGDLADLENEDIFPELDDILYHVKGMQRIVNQWSEKFSDEGDSDSALDSVSPCPSSPKQIHLDVDNDRTTPSDLDSTGNSLNEPEEPSEIPERRDSGVGASLTRSNRHRLRWHSFQSSHRPSLNSVSLQINCQSVAQMNLLQKYSLLKLTALLEKYTPSNKHGFSWAVPKFMKRIKVPDYKDRSVFGVPLTVNVQRTGQPLPQSIQQAMRYLRNHCLDQVGLFRKSGVKSRIQALRQMNEGAIDCVNYEGQSAYDVADMLKQYFRDLPEPLMTNKLSETFLQIYQYVPKDQRLQAIKAAIMLLPDENREVLQTLLYFLSDVTAAVKENQMTPTNLAVCLAPSLFHLNTLKRENSSPRVMQRKQSLGKPDQKDLNENLAATQGLAHMIAECKKLFQVPEEMSRCRNSYTEQELKPLTLEALGHLGNDDSADYQHFLQDCVDGLFKEVKEKFKGWVSYSTSEQAELSYKKVSEGPPLRLWRSVIEVPAVPEEILKRLLKEQHLWDVDLLDSKVIEILDSQTEIYQYVQNSMAPHPARDYVVLRTWRTNLPKGACALLLTSVDHDRAPVVGVRVNVLLSRYLIEPCGPGKSKLTYMCRVDLRGHMPEWYTKSFGHLCAAEVVKIRDSFSNQNTETKDTKSR
2 | binds | – | – | Phospholipase C (PLC)‐δ1 (enzyme, UniProt P51178 1-756) MDSGRDFLTLHGLQDDEDLQALLKGSQLLKVKSSSWRRERFYKLQEDCKTIWQESRKVMRTPESQLFSIEDIQEVRMGHRTEGLEKFARDVPEDRCFSIVFKDQRNTLDLIAPSPADAQHWVLGLHKIIHHSGSMDQRQKLQHWIHSCLRKADKNKDNKMSFKELQNFLKELNIQVDDSYARKIFRECDHSQTDSLEDEEIEAFYKMLTQRVEIDRTFAEAAGSGETLSVDQLVTFLQHQQREEAAGPALALSLIERYEPSETAKAQRQMTKDGFLMYLLSADGSAFSLAHRRVYQDMGQPLSHYLVSSSHNTYLLEDQLAGPSSTEAYIRALCKGCRCLELDCWDGPNQEPIIYHGYTFTSKILFCDVLRAIRDYAFKASPYPVILSLENHCTLEQQRVMARHLHAILGPMLLNRPLDGVTNSLPSPEQLKGKILLKGKKLGGLLPPGGEGGPEATVVSDEDEAAEMEDEAVRSRVQHKPKEDKLRLAQELSDMVIYCKSVHFGGFSSPGTPGQAFYEMASFSENRALRLLQESGNGFVRHNVGHLSRIYPAGWRTDSSNYSPVEMWNGGCQIVALNFQTPGPEMDVYQGRFQDNGACGYVLKPAFLRDPNGTFNPRALAQGPWWARKRLNIRVISGQQLPKVNKNKNSIVDPKVTVEIHGVSRDVASRQTAVITNNGFNPWWDTEFAFEVVVPDLALIRFLVEDYDASSKNDFIGQSTIPLNSLKQGYRHVHLMSKNGDQHPSATLFVKISLQD
3 | – | no binding | binds | PLC‐δ1 (1‐756) (enzyme, UniProt P51178 1-756) MDSGRDFLTLHGLQDDEDLQALLKGSQLLKVKSSSWRRERFYKLQEDCKTIWQESRKVMRTPESQLFSIEDIQEVRMGHRTEGLEKFARDVPEDRCFSIVFKDQRNTLDLIAPSPADAQHWVLGLHKIIHHSGSMDQRQKLQHWIHSCLRKADKNKDNKMSFKELQNFLKELNIQVDDSYARKIFRECDHSQTDSLEDEEIEAFYKMLTQRVEIDRTFAEAAGSGETLSVDQLVTFLQHQQREEAAGPALALSLIERYEPSETAKAQRQMTKDGFLMYLLSADGSAFSLAHRRVYQDMGQPLSHYLVSSSHNTYLLEDQLAGPSSTEAYIRALCKGCRCLELDCWDGPNQEPIIYHGYTFTSKILFCDVLRAIRDYAFKASPYPVILSLENHCTLEQQRVMARHLHAILGPMLLNRPLDGVTNSLPSPEQLKGKILLKGKKLGGLLPPGGEGGPEATVVSDEDEAAEMEDEAVRSRVQHKPKEDKLRLAQELSDMVIYCKSVHFGGFSSPGTPGQAFYEMASFSENRALRLLQESGNGFVRHNVGHLSRIYPAGWRTDSSNYSPVEMWNGGCQIVALNFQTPGPEMDVYQGRFQDNGACGYVLKPAFLRDPNGTFNPRALAQGPWWARKRLNIRVISGQQLPKVNKNKNSIVDPKVTVEIHGVSRDVASRQTAVITNNGFNPWWDTEFAFEVVVPDLALIRFLVEDYDASSKNDFIGQSTIPLNSLKQGYRHVHLMSKNGDQHPSATLFVKISLQD
